Taken from: PubChem BioAssay AID1224830 (NIAID, 2016)
In all, the deposit lists about 18,000 reagents; this is a part drawn at random. About 2,900 of all reagents (16%) count as active. 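Calls are made per well; low scores hint the gene aids the LPS response, high scores that it dampens it.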 Repeated entries: four replicate wells of each siRNA pool. No sequences are given here.

Assay: 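Host factors that control LPS-induced TNF expression in human macrophages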 (primary screen)
System: human THP-1 monocytic leukaemia cells, TNF dual-luciferase reporter clone, PMA-differentiated to macrophage-like cells
Knock-down reagent: siRNA pool against human genes, 50 nM
Timing: LPS for 4 h, given about 3 days after siRNA transfection
Conditions: bacterial LPS (TLR4 ligand), 10 ng/ml
Measurement: 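Ratio of firefly to renilla light, scaled to the plate median and expressed as a robust z-score per replicate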
Reading the numbers: TNF reporter robust z-score: higher = stronger TNF reporter response to LPS
Call rule: 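Each well counts as active if its z-score is over 2.8 or under -1.5; controls are left without a call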

gene | TNF reporter robust z-score | Outcome
OR2M5 (olfactory receptor family 2 subfamily M member 5) | -0.59 | inactive
OR2M5 (olfactory receptor family 2 subfamily M member 5) | -0.54 | inactive
OR2M5 (olfactory receptor family 2 subfamily M member 5) | 2.57 | inactive
OR2M5 (olfactory receptor family 2 subfamily M member 5) | -0.47 | inactive
ADARB2 (adenosine deaminase RNA specific B2 (inactive)) | 0.59 | inactive
ADARB2 (adenosine deaminase RNA specific B2 (inactive)) | -0.65 | inactive
ADARB2 (adenosine deaminase RNA specific B2 (inactive)) | -0.57 | inactive
ADARB2 (adenosine deaminase RNA specific B2 (inactive)) | -0.86 | inactive
IRF2 (interferon regulatory factor 2) | 1.96 | inactive
IRF2 (interferon regulatory factor 2) | 1.61 | inactive
IRF2 (interferon regulatory factor 2) | -1.47 | inactive
IRF2 (interferon regulatory factor 2) | 0.88 | inactive
CC2D1A (coiled-coil and C2 domain containing 1A) | -1.16 | inactive
CC2D1A (coiled-coil and C2 domain containing 1A) | -0.71 | inactive
CC2D1A (coiled-coil and C2 domain containing 1A) | 0.01 | inactive
CC2D1A (coiled-coil and C2 domain containing 1A) | 0.61 | inactive
EMP2 (epithelial membrane protein 2) | 0.16 | inactive
EMP2 (epithelial membrane protein 2) | 0 | inactive
EMP2 (epithelial membrane protein 2) | 0.31 | inactive
CLCN3 (Cl-/H+ antiporter 3) | -1.59 | active
CLCN3 (Cl-/H+ antiporter 3) | 0.46 | inactive
CLCN3 (Cl-/H+ antiporter 3) | -0.4 | inactive
CLCN3 (Cl-/H+ antiporter 3) | -0.01 | inactive
TRIM49B (tripartite motif containing 49B) | 0.86 | inactive
TRIM49B (tripartite motif containing 49B) | 0.11 | inactive
TRIM49B (tripartite motif containing 49B) | 0.22 | inactive
TRIM49B (tripartite motif containing 49B) | -0.77 | inactive
SLC4A11 | 0.51 | inactive
SLC4A11 | 1.5 | inactive
SLC4A11 | 2.48 | inactive
SLC4A11 | 2.9 | active
OR1L6 (olfactory receptor family 1 subfamily L member 6) | 2.49 | inactive
OR1L6 (olfactory receptor family 1 subfamily L member 6) | 2.03 | inactive
OR1L6 (olfactory receptor family 1 subfamily L member 6) | -0.45 | inactive
OR1L6 (olfactory receptor family 1 subfamily L member 6) | 0.51 | inactive
PSG2 (pregnancy specific beta-1-glycoprotein 2) | -1.37 | inactive
PSG2 (pregnancy specific beta-1-glycoprotein 2) | -0.9 | inactive
PSG2 (pregnancy specific beta-1-glycoprotein 2) | -0.28 | inactive
PSG2 (pregnancy specific beta-1-glycoprotein 2) | -1.05 | inactive
SYNGR4 (synaptogyrin 4) | -1.25 | inactive
SYNGR4 (synaptogyrin 4) | -1.3 | inactive
SYNGR4 (synaptogyrin 4) | -0.77 | inactive
SYNGR4 (synaptogyrin 4) | -1.09 | inactive
TGM1 (transglutaminase 1) | -0.32 | inactive
TGM1 (transglutaminase 1) | -0.3 | inactive
TGM1 (transglutaminase 1) | -0.11 | inactive
TGM1 (transglutaminase 1) | -0.42 | inactive
OR4C12 (olfactory receptor family 4 subfamily C member 12) | -0.38 | inactive
OR4C12 (olfactory receptor family 4 subfamily C member 12) | 0.39 | inactive
OR4C12 (olfactory receptor family 4 subfamily C member 12) | -0.02 | inactive
OR4C12 (olfactory receptor family 4 subfamily C member 12) | 0 | inactive
SH3BGRL2 (SH3 domain binding glutamate rich protein like 2) | 0.27 | inactive
SH3BGRL2 (SH3 domain binding glutamate rich protein like 2) | -0.34 | inactive
SH3BGRL2 (SH3 domain binding glutamate rich protein like 2) | -0.29 | inactive
SH3BGRL2 (SH3 domain binding glutamate rich protein like 2) | -0.22 | inactive
CLEC1A (C-type lectin domain family 1 member A) | 0.06 | inactive
CLEC1A (C-type lectin domain family 1 member A) | -0.4 | inactive
CLEC1A (C-type lectin domain family 1 member A) | 0.24 | inactive
CLEC1A (C-type lectin domain family 1 member A) | 1.28 | inactive
TMEM88 (transmembrane protein 88) | 0.29 | inactive
TMEM88 (transmembrane protein 88) | -0.55 | inactive
TMEM88 (transmembrane protein 88) | -1.41 | inactive
TMEM88 (transmembrane protein 88) | -0.9 | inactive
RPL36A (ribosomal protein L36a) | 0.8 | inactive
RPL36A (ribosomal protein L36a) | 2.13 | inactive
RPL36A (ribosomal protein L36a) | 0.92 | inactive
RPL36A (ribosomal protein L36a) | 2.16 | inactive
LARS2 (leucyl-tRNA synthetase 2, mitochondrial) | -0.65 | inactive
LARS2 (leucyl-tRNA synthetase 2, mitochondrial) | -0.42 | inactive
LARS2 (leucyl-tRNA synthetase 2, mitochondrial) | 2.04 | inactive
LARS2 (leucyl-tRNA synthetase 2, mitochondrial) | -0.18 | inactive
ATP6V0E1 (ATPase H+ transporting V0 subunit e1) | -2.02 | active
ATP6V0E1 (ATPase H+ transporting V0 subunit e1) | -1.52 | active
ATP6V0E1 (ATPase H+ transporting V0 subunit e1) | -1.88 | active
ATP6V0E1 (ATPase H+ transporting V0 subunit e1) | -1.5 | inactive
CSRP2 (cysteine and glycine rich protein 2) | -0.93 | inactive
CSRP2 (cysteine and glycine rich protein 2) | -0.73 | inactive
CSRP2 (cysteine and glycine rich protein 2) | -0.68 | inactive
CSRP2 (cysteine and glycine rich protein 2) | 0.1 | inactive
NOX1 (NADPH oxidase 1) | 0.69 | inactive
NOX1 (NADPH oxidase 1) | -0.57 | inactive
NOX1 (NADPH oxidase 1) | -0.63 | inactive
NOX1 (NADPH oxidase 1) | -0.45 | inactive
CARS1 (cysteinyl-tRNA synthetase 1) | 1.36 | inactive
CARS1 (cysteinyl-tRNA synthetase 1) | 2.08 | inactive
CARS1 (cysteinyl-tRNA synthetase 1) | -0.59 | inactive
CARS1 (cysteinyl-tRNA synthetase 1) | 1.78 | inactive
CDYL2 (chromodomain Y like 2) | 0.5 | inactive
CDYL2 (chromodomain Y like 2) | 1.25 | inactive
CDYL2 (chromodomain Y like 2) | 0.36 | inactive
CDYL2 (chromodomain Y like 2) | 0.32 | inactive
RUFY2 (RUN and FYVE domain containing 2) | -0.46 | inactive
RUFY2 (RUN and FYVE domain containing 2) | -0.02 | inactive
RUFY2 (RUN and FYVE domain containing 2) | 0.47 | inactive
RUFY2 (RUN and FYVE domain containing 2) | 0.54 | inactive
DYNC1I2 (dynein cytoplasmic 1 intermediate chain 2) | -0.64 | inactive
DYNC1I2 (dynein cytoplasmic 1 intermediate chain 2) | -0.56 | inactive
DYNC1I2 (dynein cytoplasmic 1 intermediate chain 2) | -0.79 | inactive
DYNC1I2 (dynein cytoplasmic 1 intermediate chain 2) | -0.78 | inactive
VMA21 (vacuolar ATPase assembly factor VMA21) | 3.55 | active
VMA21 (vacuolar ATPase assembly factor VMA21) | 2.01 | inactive
VMA21 (vacuolar ATPase assembly factor VMA21) | -0.57 | inactive
VMA21 (vacuolar ATPase assembly factor VMA21) | 0.86 | inactive
GRHL2 (grainyhead like transcription factor 2) | 0.76 | inactive
GRHL2 (grainyhead like transcription factor 2) | 2.79 | inactive
GRHL2 (grainyhead like transcription factor 2) | 1.87 | inactive
GRHL2 (grainyhead like transcription factor 2) | 1.76 | inactive
USP20 (ubiquitin specific peptidase 20) | -1.45 | inactive
USP20 (ubiquitin specific peptidase 20) | 0.06 | inactive
USP20 (ubiquitin specific peptidase 20) | -0.91 | inactive
USP20 (ubiquitin specific peptidase 20) | 0.03 | inactive
SPINK9 (serine peptidase inhibitor Kazal type 9) | -0.06 | inactive
SPINK9 (serine peptidase inhibitor Kazal type 9) | 0.56 | inactive
SPINK9 (serine peptidase inhibitor Kazal type 9) | -0.68 | inactive
SPINK9 (serine peptidase inhibitor Kazal type 9) | 0.22 | inactive
TMTC1 (transmembrane O-mannosyltransferase targeting cadherins 1) | – | inactive
STX18 (syntaxin 18) | -0.52 | inactive
STX18 (syntaxin 18) | -0.34 | inactive
STX18 (syntaxin 18) | -1.48 | inactive
STX18 (syntaxin 18) | -1.3 | inactive
GTPBP8 (GTP binding protein 8) | 0.2 | inactive
GTPBP8 (GTP binding protein 8) | 0.38 | inactive
GTPBP8 (GTP binding protein 8) | 0.1 | inactive
GTPBP8 (GTP binding protein 8) | 0.61 | inactive
NUP62 (nucleoporin 62) | 0.89 | inactive
NUP62 (nucleoporin 62) | 0.27 | inactive
NUP62 (nucleoporin 62) | 1.41 | inactive
NUP62 (nucleoporin 62) | -0.55 | inactive
RASSF5 (Ras association domain family member 5) | -0.24 | inactive
RASSF5 (Ras association domain family member 5) | 1.45 | inactive
RASSF5 (Ras association domain family member 5) | 0.82 | inactive
RASSF5 (Ras association domain family member 5) | 0.67 | inactive
ERRFI1 (ERBB receptor feedback inhibitor 1) | 0.63 | inactive
ERRFI1 (ERBB receptor feedback inhibitor 1) | 0.25 | inactive
ERRFI1 (ERBB receptor feedback inhibitor 1) | -0.88 | inactive
ERRFI1 (ERBB receptor feedback inhibitor 1) | -0.48 | inactive
GPRC5C (G protein-coupled receptor class C group 5 member C) | -0.28 | inactive
GPRC5C (G protein-coupled receptor class C group 5 member C) | -0.21 | inactive
GPRC5C (G protein-coupled receptor class C group 5 member C) | -0.37 | inactive
GPRC5C (G protein-coupled receptor class C group 5 member C) | 0.74 | inactive

Targets above whose gene name starts with L or l (4):
gene | TNF reporter robust z-score | Outcome
LARS2 (leucyl-tRNA synthetase 2, mitochondrial) | -0.65 | inactive
LARS2 (leucyl-tRNA synthetase 2, mitochondrial) | -0.42 | inactive
LARS2 (leucyl-tRNA synthetase 2, mitochondrial) | 2.04 | inactive
LARS2 (leucyl-tRNA synthetase 2, mitochondrial) | -0.18 | inactive
